Paper PMC9735520
These are yes or no findings as the source states them, for the method shown. Binding seen in cells or lysates may run through a third protein. Some results given as binding are weak or reduced against the parent protein; the word gives no strength.

Sequences of proteins named here, by UniProt entry; tags and fusion partners are left off.
UniProt P17174: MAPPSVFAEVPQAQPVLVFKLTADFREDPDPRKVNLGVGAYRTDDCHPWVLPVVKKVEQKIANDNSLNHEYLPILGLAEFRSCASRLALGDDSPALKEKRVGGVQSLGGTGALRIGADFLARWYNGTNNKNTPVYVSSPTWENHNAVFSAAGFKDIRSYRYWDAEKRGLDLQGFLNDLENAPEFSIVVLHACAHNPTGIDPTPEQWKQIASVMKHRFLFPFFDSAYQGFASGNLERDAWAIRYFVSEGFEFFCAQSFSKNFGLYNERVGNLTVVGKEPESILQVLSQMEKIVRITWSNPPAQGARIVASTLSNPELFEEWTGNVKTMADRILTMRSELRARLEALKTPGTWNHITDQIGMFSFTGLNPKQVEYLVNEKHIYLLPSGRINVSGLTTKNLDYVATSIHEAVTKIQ
UniProt P41597: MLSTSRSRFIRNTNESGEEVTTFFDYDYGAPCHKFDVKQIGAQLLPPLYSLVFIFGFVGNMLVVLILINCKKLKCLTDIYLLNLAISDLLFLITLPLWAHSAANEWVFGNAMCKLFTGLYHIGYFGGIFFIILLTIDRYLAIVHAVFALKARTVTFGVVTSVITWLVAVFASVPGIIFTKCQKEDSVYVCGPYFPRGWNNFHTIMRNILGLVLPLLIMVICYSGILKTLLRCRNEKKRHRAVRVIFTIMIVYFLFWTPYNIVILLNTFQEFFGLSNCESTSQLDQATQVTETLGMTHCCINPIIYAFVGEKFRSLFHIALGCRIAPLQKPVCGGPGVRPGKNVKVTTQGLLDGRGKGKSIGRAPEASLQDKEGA

Target: aspartate aminotransferase 1 (GOT1) (UniProt P17174)
Test: co-IP; cells lysed in RIPA buffer 48 h after transfection; supernatant incubated with corresponding antibodies at 4 °C overnight, Protein A agarose beads, washed with ice-cold PBS, blot

- binding: binds
Substance: C-C motif chemokine receptor-2 (CCR2) (from UniProt P41597 1-374)
